Assay results taken from article doi:10.1101/2023.01.30.526200.
These are yes or no findings as the source states them, for the method shown. Binding seen in cells or lysates may run through a third protein. Some binding calls cover weakened binding; strength is not graded here. Sequences can lack the tags named with a protein.

Target: BKPyV agnoprotein (GFP-agnoprotein and GST-agnoprotein, co-expressed in HEK293 cells) (BK polyomavirus (BKPyV)) (UniProt P03085)
Test: pull-down

B1: BKPyV agnoprotein (GFP-agnoprotein and GST-agnoprotein, co-expressed in HEK293 cells) (protein, UniProt P03085 1-66)
chain: MVLRQLSRQASVKVGKTWTGTKKRAQRIFIFILELLLEFCRGEDSVDGKNKSTTALPAVKDSVKDS
With B1 the binding was “binds”.
